Our source for the binding values is article PMC11645142.

The chains behind the UniProt entries cited, without tags or fusion partners. Where a name states a change or a piece, a line headed by the entry shows the natural chain unless it says otherwise. A line that says so, or that is headed by a name, gives the form on record, which may keep a tag or linker. Residues count along the entry.
WT UMOD, endogenous in kidneys of UMOD^+/+ mice (mouse (endogenous in kidney)) (Q91X17, residues 25-618): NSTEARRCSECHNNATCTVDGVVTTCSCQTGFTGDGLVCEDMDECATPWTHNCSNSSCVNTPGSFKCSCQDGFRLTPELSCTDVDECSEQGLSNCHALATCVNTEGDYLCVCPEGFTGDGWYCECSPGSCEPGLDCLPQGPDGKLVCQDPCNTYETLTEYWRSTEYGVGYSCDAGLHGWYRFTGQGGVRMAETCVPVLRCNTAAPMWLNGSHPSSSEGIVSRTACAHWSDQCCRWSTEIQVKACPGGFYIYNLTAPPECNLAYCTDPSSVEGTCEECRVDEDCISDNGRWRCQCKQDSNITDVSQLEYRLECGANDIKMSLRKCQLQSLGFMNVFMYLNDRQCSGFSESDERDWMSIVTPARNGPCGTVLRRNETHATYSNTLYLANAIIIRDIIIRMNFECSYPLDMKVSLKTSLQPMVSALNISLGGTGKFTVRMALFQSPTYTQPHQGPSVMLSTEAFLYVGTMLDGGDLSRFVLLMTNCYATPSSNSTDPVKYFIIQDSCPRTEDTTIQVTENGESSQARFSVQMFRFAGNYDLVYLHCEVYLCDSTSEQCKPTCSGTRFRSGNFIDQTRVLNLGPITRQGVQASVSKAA
mutant UMOD Cys125Arg, endogenous in kidneys of UMOD^C125R/C125R knockin mice (mouse (endogenous in kidney)) (Q91X17, form named): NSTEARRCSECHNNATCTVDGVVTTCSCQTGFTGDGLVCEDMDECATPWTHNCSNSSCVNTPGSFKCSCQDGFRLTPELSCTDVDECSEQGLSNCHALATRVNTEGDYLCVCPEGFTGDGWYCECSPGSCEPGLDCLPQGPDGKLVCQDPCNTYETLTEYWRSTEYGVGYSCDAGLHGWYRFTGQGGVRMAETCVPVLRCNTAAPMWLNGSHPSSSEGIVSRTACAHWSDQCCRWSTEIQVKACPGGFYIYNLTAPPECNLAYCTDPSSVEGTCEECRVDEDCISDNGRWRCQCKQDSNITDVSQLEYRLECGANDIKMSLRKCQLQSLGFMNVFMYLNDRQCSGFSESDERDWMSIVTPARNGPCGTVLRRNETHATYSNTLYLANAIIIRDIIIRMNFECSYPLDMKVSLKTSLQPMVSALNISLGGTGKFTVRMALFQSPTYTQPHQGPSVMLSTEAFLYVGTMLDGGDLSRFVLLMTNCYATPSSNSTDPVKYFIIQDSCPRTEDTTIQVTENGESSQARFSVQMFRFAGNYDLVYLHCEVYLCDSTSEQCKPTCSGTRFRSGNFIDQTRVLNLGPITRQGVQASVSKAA
UniProt Q9R0Q3, residues 21-201: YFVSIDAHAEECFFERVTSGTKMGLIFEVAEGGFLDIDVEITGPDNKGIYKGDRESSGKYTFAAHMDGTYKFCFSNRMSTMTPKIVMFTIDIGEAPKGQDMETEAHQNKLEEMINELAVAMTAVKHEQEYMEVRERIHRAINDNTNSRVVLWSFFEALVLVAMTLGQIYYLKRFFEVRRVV

In test [1] the target is WT UMOD, endogenous in kidneys of UMOD^+/+ mice (mouse (endogenous in kidney)) (UniProt Q91X17). The experiment in a line: co-IP; endogenous; whole-kidney lysate (NP-40 lysis buffer, 2 mg protein) of UMOD^+/+ or UMOD^C125R/C125R mice on THP (B-2) agarose beads overnight at 4°C, normal mouse IgG agarose beads as control; blot.
Test [2] concerns the target mutant UMOD Cys125Arg, endogenous in kidneys of UMOD^C125R/C125R knockin mice (mouse (endogenous in kidney)) (UniProt Q91X17). Described as above.

No constants are given. Whether binding was seen depends on the method and setting. In cells and extracts the contact can be indirect. Some results given as binding are weak or reduced against the parent protein; the word gives no strength.

Turning to “TMED2, endogenous in mouse kidney (from UniProt Q9R0Q3 21-201)”, the binding result in test [1] and in test [2] was “binds” throughout.

B1: TMED9, endogenous in mouse kidney (protein, UniProt Q99KF1 38-235)
chain: LYFHIGETEKKCFIEEIPDETMVIGNYRTQLYDKQREEYQPATPGLGMFVEVKDPEDKVILARQYGSEGRFTFTSHTPGEHQICLHSNSTKFSLFAGGMLRVHLDIQVGEHANDYAEIAAKDKLSELQLRVRQLVEQVEQIQKEQNYQRWREERFRQTSESTNQRVLWWSILQTLILVAIGVWQMRHLKSFFEAKKLV
Regarding B1, the binding result in test [1] and in test [2] was “binds” throughout.
